Experimental data taken from PubChem BioAssay AID1240 (Sanford-Burnham Center for Chemical Genomics, 2008).
Shown are results outside the selection of strong results, which stands elsewhere.

Protein sequences, listed by entry. Tags and fused reporters are not part of them. Lines headed by an entry give the natural chain unless they say otherwise; changes in a name come on top.
UniProt Q9HD36: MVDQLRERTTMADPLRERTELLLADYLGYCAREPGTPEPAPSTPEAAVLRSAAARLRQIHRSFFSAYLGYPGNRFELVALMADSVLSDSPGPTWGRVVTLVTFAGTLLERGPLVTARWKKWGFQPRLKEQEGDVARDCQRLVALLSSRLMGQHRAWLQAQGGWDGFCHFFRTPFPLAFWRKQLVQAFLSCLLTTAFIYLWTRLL

Biological target: Bcl-2-like protein 10 (Homo sapiens) (UniProt Q9HD36)
Assay: Phenotype converters, Bcl-B/TR3 peptide binding displacement, primary biochemical FP (AID 1240);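 also: 0% = Bcl-B with tracer peptide and DMSO and 100% = tracer peptide lacking Bcl-B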
Details: GST-Bcl-B / FITC-TR3 peptide fluorescence polarization; stronger effect = higher value; compound at 3.75 mg/L

SMILES	displacement [%]
O=C(/C=C/c1ccccc1)Nc1cccc(F)c1	13.5
O=c1oc2cc(OCc3ccccc3)ccc2c2ccccc12	-13.3
O=C(/C=C/c1ccccc1)Nc1ccc(F)cc1	10.8
